Consider seven molecules from paper PMC8842533.

By UniProt entry, the sequences of proteins in these tests, tags left out.
UniProt Q01844: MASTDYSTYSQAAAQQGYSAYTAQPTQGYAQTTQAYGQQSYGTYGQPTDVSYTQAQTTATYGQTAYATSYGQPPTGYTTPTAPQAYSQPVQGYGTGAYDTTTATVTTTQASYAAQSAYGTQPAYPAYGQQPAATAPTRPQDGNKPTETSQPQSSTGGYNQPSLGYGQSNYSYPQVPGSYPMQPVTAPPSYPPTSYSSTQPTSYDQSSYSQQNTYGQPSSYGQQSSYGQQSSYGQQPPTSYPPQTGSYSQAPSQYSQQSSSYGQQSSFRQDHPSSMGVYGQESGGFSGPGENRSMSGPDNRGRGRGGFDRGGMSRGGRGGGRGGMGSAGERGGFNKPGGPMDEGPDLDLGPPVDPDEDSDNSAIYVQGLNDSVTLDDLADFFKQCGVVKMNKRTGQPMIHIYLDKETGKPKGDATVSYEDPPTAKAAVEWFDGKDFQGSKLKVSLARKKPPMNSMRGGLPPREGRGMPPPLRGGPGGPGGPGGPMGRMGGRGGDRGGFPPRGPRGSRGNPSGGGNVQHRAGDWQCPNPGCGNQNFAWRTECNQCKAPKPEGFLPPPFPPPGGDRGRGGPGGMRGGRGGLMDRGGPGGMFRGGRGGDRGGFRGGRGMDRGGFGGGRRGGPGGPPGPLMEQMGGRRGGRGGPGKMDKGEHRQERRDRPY
UniProt P06748: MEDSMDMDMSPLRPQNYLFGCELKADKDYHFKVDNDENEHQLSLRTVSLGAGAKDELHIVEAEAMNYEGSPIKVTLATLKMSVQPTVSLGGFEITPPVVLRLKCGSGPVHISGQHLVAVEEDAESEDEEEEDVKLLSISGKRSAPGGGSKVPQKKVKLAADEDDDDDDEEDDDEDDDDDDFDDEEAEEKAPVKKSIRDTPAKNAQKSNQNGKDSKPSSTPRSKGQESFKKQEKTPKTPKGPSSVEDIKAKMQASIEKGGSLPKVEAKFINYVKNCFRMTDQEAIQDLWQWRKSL

Holding throughout (assay): proximity labelling; BioID: myc-BioID-DPRx100 expressed in HEK293T cells, 50 uM biotin for 24 h, lysis in 8 M urea, 50 mM Tris-HCl pH 7.5, streptavidin Sepharose pull-down of biotinylated proteins, DIA LC-MS/MS; specific interactors: log2 fold change > 1 and adjusted p < 0.05 against both myc-BioID and EGFP controls; three biological replicates
For assay [1], the target named is T1, myc-BioID-(GGGS)x3-poly-PR x100 fusion protein (human).
T1 sequence: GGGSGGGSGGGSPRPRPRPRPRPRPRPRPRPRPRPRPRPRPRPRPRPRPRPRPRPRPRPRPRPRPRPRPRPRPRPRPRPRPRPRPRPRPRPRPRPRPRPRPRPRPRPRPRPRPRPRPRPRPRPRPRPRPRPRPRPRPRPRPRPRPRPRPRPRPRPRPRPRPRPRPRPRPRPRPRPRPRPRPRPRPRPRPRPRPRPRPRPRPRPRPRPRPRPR

Assay [2] concerns the target T2, myc-BioID-(GGGS)x3-poly-GR x100 fusion protein (human).
T2 sequence: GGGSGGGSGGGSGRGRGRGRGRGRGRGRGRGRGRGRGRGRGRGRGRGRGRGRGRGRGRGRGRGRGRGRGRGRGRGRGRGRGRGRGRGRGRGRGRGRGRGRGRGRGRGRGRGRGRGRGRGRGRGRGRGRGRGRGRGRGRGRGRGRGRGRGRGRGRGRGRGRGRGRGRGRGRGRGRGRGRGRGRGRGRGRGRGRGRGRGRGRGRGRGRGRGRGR

Assay [3] has as its target myc-BioID-(GGGS)x3-poly-GA x100 fusion protein (human).

Results are given in words; binding and its absence hold for the method and conditions named. Binding seen in cells or lysates may run through a third protein. A yes stands for co-enrichment or nearness to the bait. Other partners may have been found. For some of these results: Where a sequence is shown, tags or fusion partners need not be part of it.

As for “RNA-binding protein EWS (EWSR1) (from UniProt Q01844 1-656)”, the binding entry in assay [1] is given as “binds”.

As to “Nucleophosmin (NPM1) (from UniProt P06748 1-294)”, the binding result in assay [1] is listed as “binds”.

B1: double-stranded RNA-binding protein Staufen homolog 2 (STAU2) (protein, UniProt Q9NUL3 1-570)
chain: MANPKEKTAMCLVNELARFNRVQPQYKLLNERGPAHSKMFSVQLSLGEQTWESEGSSIKKAQQAVANKALTESTLPKPVQKPPKSNVNNNPGSITPTVELNGLAMKRGEPAIYRPLDPKPFPNYRANYNFRGMYNQRYHCPVPKIFYVQLTVGNNEFFGEGKTRQAARHNAAMKALQALQNEPIPERSPQNGESGKDVDDDKDANKSEISLVFEIALKRNMPVSFEVIKESGPPHMKSFVTRVSVGEFSAEGEGNSKKLSKKRAATTVLQELKKLPPLPVVEKPKLFFKKRPKTIVKAGPEYGQGMNPISRLAQIQQAKKEKEPDYVLLSERGMPRRREFVMQVKVGNEVATGTGPNKKIAKKNAAEAMLLQLGYKASTNLQDQLEKTGENKGWSGPKPGFPEPTNNTPKGILHLSPDVYQEMEASRHKVISGTTLGYLSPKDMNQPSSSFFSISPTSNSSATIARELLMNGTSSTAEAIGLKGSSPTPPCSPVQPSKQLEYLARIQGFQAALSALKQFSEQGLDPIDGAMNIEKGSLEKQAKHLREKADNNQAPPGSIAQDCKKSNSAV
As to B1, the binding entry in assay [2] is “binds”.

B2: UBXN1/SAKS1 (protein, UniProt Q04323 1-297)
chain: MAELTALESLIEMGFPRGRAEKALALTGNQGIEAAMDWLMEHEDDPDVDEPLETPLGHILGREPTSSEQGGLEGSGSAAGEGKPALSEEERQEQTKRMLELVAQKQREREEREEREALERERQRRRQGQELSAARQRLQEDEMRRAAEERRREKAEELAARQRVREKIERDKAERAKKYGGSVGSQPPPVAPEPGPVPSSPSQEPPTKREYDQCRIQVRLPDGTSLTQTFRAREQLAAVRLYVELHRGEELGGGQDPVQLLSGFPRRAFSEADMERPLQELGLVPSAVLIVAKKCPS
As for B2, the binding entry in assay [3] is given as “binds”.

B3: UBXN6/UBXD1 (protein, UniProt Q9BZV1 1-441)
chain: MKKFFQEFKADIKFKSAGPGQKLKESVGEKAHKEKPNQPAPRPPRQGPTNEAQMAAAAALARLEQKQSRAWGPTSQDTIRNQVRKELQAEATVSGSPEAPGTNVVSEPREEGSAHLAVPGVYFTCPLTGATLRKDQRDACIKEAILLHFSTDPVAASIMKIYTFNKDQDRVKLGVDTIAKYLDNIHLHPEEEKYRKIKLQNKVFQERINCLEGTHEFFEAIGFQKVLLPAQDQEDPEEFYVLSETTLAQPQSLERHKEQLLAAEPVRAKLDRQRRVFQPSPLASQFELPGDFFNLTAEEIKREQRLRSEAVERLSVLRTKAMREKEEQRGLRKYNYTLLRVRLPDGCLLQGTFYARERLGAVYGFVREALQSDWLPFELLASGGQKLSEDENLALNECGLVPSALLTFSWDMAVLEDIKAAGAEPDSILKPELLSAIEKLL
In the case of B3, in assay [3], the binding entry is “binds”.

B4: LTV1 (protein, UniProt Q96GA3 1-475)
chain: MPHRKKKPFIEKKKAVSFHLVHRSQRDPLAADESAPQRVLLPTQKIDNEERRAEQRKYGVFFDDDYDYLQHLKEPSGPSELIPSSTFSAHNRREEKEETLVIPSTGIKLPSSVFASEFEEDVGLLNKAAPVSGPRLDFDPDIVAALDDDFDFDDPDNLLEDDFILQANKATGEEEGMDIQKSENEDDSEWEDVDDEKGDSNDDYDSAGLLSDEDCMSVPGKTHRAIADHLFWSEETKSRFTEYSMTSSVMRRNEQLTLHDERFEKFYEQYDDDEIGALDNAELEGSIQVDSNRLQEVLNDYYKEKAENCVKLNTLEPLEDQDLPMNELDESEEEEMITVVLEEAKEKWDCESICSTYSNLYNHPQLIKYQPKPKQIRISSKTGIPLNVLPKKGLTAKQTERIQMINGSDLPKVSTQPRSKNESKEDKRARKQAIKEERKERRVEKKANKLAFKLEKRRQEKELLNLKKNVEGLKL
As for B4, the binding result in assay [2] is “binds”.

B5: SERPIN H1/HSP47 (protein, UniProt P50454 19-418)
chain: AEVKKPAAAAAPGTAEKLSPKAATLAERSAGLAFSLYQAMAKDQAVENILVSPVVVASSLGLVSLGGKATTASQAKAVLSAEQLRDEEVHAGLGELLRSLSNSTARNVTWKLGSRLYGPSSVSFADDFVRSSKQHYNCEHSKINFRDKRSALQSINEWAAQTTDGKLPEVTKDVERTDGALLVNAMFFKPHWDEKFHHKMVDNRGFMVTRSYTVGVMMMHRTGLYNYYDDEKEKLQIVEMPLAHKLSSLIILMPHHVEPLERLEKLLTKEQLKIWMGKMQKKAVAISLPKGVVEVTHDLQKHLAGLGLTEAIDKNKADLSRMSGKKDLYLASVFHATAFELDTDGNPFDQDIYGREELRSPKLFYADHPFIFLVRDTQSGSLLFIGRLVRPKGDKMRDEL
As for B5, in assay [3], the binding result is given as “binds”.
